Results reported in PubChem BioAssay AID493014 (National Center for Advancing Translational Sciences (NCATS), 2011).
Out of some 340,000 compounds screened, about 170 (0.05%) were called active. The inconclusive results got no clear call from the source; some entries with a clear call stand among them for comparison. The call rests on the fitted dose curve; in most records, active means well fitted inhibition curve with a large enough effect in the signal ratio, with a control signal flat (not every such curve was filed as active); inconclusive means small, poorly fitted or top-dose-only effect, or effect the other way, or a change in a side signal; inactive means flat fitted curve, though single readings scatter; the % refers to the signal ratio. A potency beside an inconclusive call is a rough fit, not a confirmed value.

assay: qHTS Assay to Find Inhibitors of Chronic Active B-Cell Receptor Signaling; settings: ABC-DLBCL IkBa-CBG/CBR reporter, luminescence ratio (green luciferase fused to IkBa over red control in TMD8 lymphoma cells), 4 h; activity change, negative = inhibition: at 46.1 µM (top of the series) unless noted;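 on activity change, negative = inhibition: plate controls were basal doxycycline-induced cells for no effect and cells given 10 µM MG132 for full effect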
Method in brief: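 Doxycycline induced both beetle luciferases in TMD8 lymphoma cells; IKK-driven degradation limits the IkappaBalpha-fused green signal, while red luminescence normalises for cell number and nonspecific effects. Compounds tested up to 46 uM, 4 hrs.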
Potency means the concentration at half of the fitted maximal effect.

Row | Structure (SMILES) | activity change, negative = inhibition | Potency
1 | CC(=O)c1cccc(NS(=O)(=O)N2CCOCC2)c1 | inactive: -2.41% | –
2 | Cc1cc(C(=O)C(C)OC(=O)c2ccc(NC(=O)CC#N)cc2)c(C)n1-c1ccccc1 (configuration not stated) | inactive: -8.32% | –
3 | Cc1cc(=O)oc2c(C)c(OC(C)C(=O)NCCCn3ccnc3)ccc12 (configuration not stated) | inconclusive: -2.05% | –
4 | Cc1ccc(C(C(=O)NC2CCCC2)N(C(=O)Cc2cccs2)c2ccc(C)c(C)c2)o1 (configuration not stated) | inconclusive: 0.603% | –
5 | COc1ccc2cc(CN(C(=O)Nc3ccccc3OC)C3CCCC3)c(=O)[nH]c2c1 | inconclusive: -4.73% | –
6 | O=C(NCCN1C(=O)C2C3C=CC(C3)C2C1=O)Nc1ccc(Br)cc1 (configuration not stated) | – | inconclusive: 4.61 µM [rising, full curve, poor fit]
7 | O=C(CC(=O)Nc1ccccn1)Nc1ccccn1 | inactive: 2.99% | –
8 | O=C(Nc1ccccc1Br)c1cc(S(=O)(=O)NC2CCCCC2)ccc1F | inconclusive: 0.517% | –
9 | Cc1ccc(-c2cc(C(=O)NCCCN3CCOCC3)c3ccccc3n2)cc1C | inactive: 11.5% | –
10 | CCOc1ccc(CCNC(=O)COc2cc(=O)n(C)c3ccccc23)cc1OCC | – | inconclusive: 15.8 µM [falling, partial curve, poor fit]
11 | Cc1nnc(NC(=O)CSC2=NN3CCCC(=O)N=C3S2)s1 | inconclusive: 2.45% | –
12 | N#Cc1cc2c(nc1SCC(=O)Nc1nccs1)CCCCC2 | inconclusive: 24.1% | –
13 | CCCc1nc2ccccc2c(=O)n1CCc1ccccc1 | inconclusive: 4.4% | –
14 | Cc1ccsc1C(=O)NCC(=O)OCc1ccccc1 | – | inconclusive: 20 µM [falling, single point]
15 | C/C(=N\N=C(N)N)c1ccc(Cl)cc1Cl | inconclusive: -16.5% | –
16 | Cc1ccc(-n2c(-c3c(-c4ccccc4)noc3C)n[nH]c2=S)cc1 | inconclusive: -8.41% | –
17 | CN(C)/C=C/C(=O)Oc1ccc(Cl)cc1Cl | inconclusive: 1.86% | –
18 | CN(CC#CC1(O)c2ccccc2-c2ccccc21)Cc1ccccc1 | inconclusive: -1.93% | –
19 | COc1cc2c(cc1OC)C(C)N(C(=O)c1ccc(C)o1)CC2 (configuration not stated) | inactive: -14.9% | –
20 | Cc1cc2cc(CCNC(=O)CCc3ccccc3)c(=O)[nH]c2cc1C | inactive: -1.63% | –
21 | CCCCNC(=O)CSc1nc2n[nH]c(C)c2c(=N)n1-c1cccc(C)c1 | – | inconclusive: 2.24 µM [falling, partial curve, poor fit]

Five entries already listed, ordered by number of heavy atoms, rising.
Row | Structure (SMILES) | activity change, negative = inhibition | Potency
15 | C/C(=N\N=C(N)N)c1ccc(Cl)cc1Cl | inconclusive: -16.5% | –
19 | COc1cc2c(cc1OC)C(C)N(C(=O)c1ccc(C)o1)CC2 (configuration not stated) | inactive: -14.9% | –
20 | Cc1cc2cc(CCNC(=O)CCc3ccccc3)c(=O)[nH]c2cc1C | inactive: -1.63% | –
3 | Cc1cc(=O)oc2c(C)c(OC(C)C(=O)NCCCn3ccnc3)ccc12 (configuration not stated) | inconclusive: -2.05% | –
4 | Cc1ccc(C(C(=O)NC2CCCC2)N(C(=O)Cc2cccs2)c2ccc(C)c(C)c2)o1 (configuration not stated) | inconclusive: 0.603% | –

(next part)

Row | Structure (SMILES) | activity change, negative = inhibition | Potency
22 | CN(C)CCCN(C(=O)c1ccc(S(=O)(=O)N2CCc3ccccc3C2)cc1)c1nc2ccc(F)cc2s1 | inconclusive: -0.865% | –
23 | Cc1cnc(NC(=O)COc2ccccc2)s1 | inconclusive: -17.5% | –
24 | C=CCn1c(=O)c(C(=O)Nc2ccccc2O)c(O)c2ccccc21 | – | inconclusive: 6.31 µM [falling, full curve, poor fit]
25 | C=CCNc1nc(Nc2ccc(OC)cc2)nc(OCC)n1 | inconclusive: 14.1% | –
26 | CCOC(=O)c1c(C)oc2c1cc(O)c1ccccc12 | inconclusive: 5.22% | –
27 | CC(=O)/C(N=Nc1cccc(C(F)(F)F)c1)=C(\C)O | inactive: 0.703% | –
28 | CSCCC(NC(=O)c1cc(S(=O)(=O)N2CCOCC2)ccc1F)c1nc2ccccc2[nH]1 (configuration not stated) | inconclusive: -0.632% | –
29 | O=C(Cc1cccs1)Nc1cccc(-c2nc3ccccc3[nH]2)c1 | inconclusive: 6.32% | –
30 | O=C(CSc1nnc(COc2ccccc2)o1)c1ccccc1 | inactive: 23.3% | –
31 | COc1cc(NC(=O)CN2CCN(S(=O)(=O)/C=C/c3ccccc3)CC2)cc(OC)c1OC | inconclusive: -22.5% | –
32 | COc1ccc(N2CCN(C(=O)c3cccnc3)CC2)c([N+](=O)[O-])c1 | inactive: 1.27% | –
33 | CN(Cc1ccccc1)C(=S)NC(=O)C1CCCCC1 | – | inconclusive: 23.1 µM [falling, partial curve, poor fit]
34 | COc1ccccc1S(=O)(=O)Cc1ccc(C(=O)N2CCN(c3ccccc3)CC2)o1 | inconclusive: 2.53% | –
35 | O=c1c2cc3c(cc2[nH]c(=S)n1C1CCN(Cc2ccccc2)CC1)OCO3 | inactive: -6.7% | –
36 | CC(C)C(=O)Nc1nnc(-c2ccccc2)o1 | inactive: 4.01% | –
37 | CC(C)(C)c1ccc(C(=O)O[C@H]2[C@H](Cc3ccccc3)NS(=O)(=O)[C@H]3C[C@@H]4C=C[C@]23O4)cc1 | inactive: 6.13% | –
38 | CC(=O)c1ccc(Nc2cc(C)nc3ccc(C)cc23)cc1 | inactive: 0.817% | –
39 | COc1ccc(/C=N/n2cc(-c3ccccc3)nc2N)cc1 | inconclusive: -15% | –
40 | O=Cc1ccc(OCc2nnsc2Cl)cc1 | inconclusive: 3.71% | –
41 | C=CCNc1nnnc2c1sc1nc(N3CCOCC3)c3c(c12)CCCC3 | inactive: -13.3% | –
42 | Cn1c(=O)c(NCCc2ccccc2)c2c3c(cccc31)C(=O)c1ccccc1-2 | inactive: 19.7% | –

Row | Structure (SMILES) | activity change, negative = inhibition | Potency
43 | O=C(NCCSc1ccccc1)c1ccccc1 | inconclusive: 12.5% | –
44 | CCOC(=O)C1(Cc2ccccc2)CCCN(Cc2cccc(C(C)=O)c2)C1 (configuration not stated) | inactive: 2.07% | –
45 | O=C1/C(=N\S(=O)(=O)c2cccs2)C([n+]2cccc(Cc3ccccc3)c2)=C([O-])c2ccccc21 | inactive: 0.573% | –
46 | CN(C)S(=O)(=O)c1ccc(N2CCCC2)c(C(=O)NNC(=O)COc2ccccc2Cl)c1 | inconclusive: 4.58% | –
47 | COc1cccc(C(=O)CC(=O)C(=O)Nc2cc(OC)ccc2OC)c1 | inconclusive: 0.664% | –
48 | c1ccc(-c2nnc(CSc3nncs3)o2)cc1 | inconclusive: 1.51% | –
49 | Nc1nc(SCc2ccc(Cl)cc2Cl)ns1 | inconclusive: 5.93% | –
50 | CCOc1cccc(CN2CCC(n3nccc3NC(=O)CCCc3ccccc3)CC2)c1 | – | inconclusive: 25.1 µM [falling, single point]
51 | O=C(O)c1cnn(-c2nc(-c3ccc(Cl)c(Cl)c3)cs2)c1C(F)(F)F | – | inconclusive: 25.1 µM [falling, single point]
52 | CCOc1ccc(C(=O)OCC(=O)Nc2ccc(SC(F)F)cc2)cc1OCC | inconclusive: -0.147% | –
53 | CC(=C/c1ccccc1)/C=N/n1c(-c2ccncc2)n[nH]c1=S | inactive: 5.6% | –
54 | CC(=O)OCC(=O)[C@@]12OC3(CCCC3)O[C@@H]1C[C@H]1[C@@H]3CCC4=CC(=O)C=C[C@]4(C)[C@@]3(F)[C@@H](O)C[C@@]12C | inconclusive: -5.59% | –
55 | COc1ccc(S(=O)(=O)Nc2ccc3c(c2)n(C)c(=O)n3C)cc1OC | inconclusive: -10.3% | –
56 | COc1cccc(-c2nc(-c3ccc4c(c3)NC(=O)CO4)cs2)c1 | – | inconclusive: 35.5 µM [falling, single point]
57 | CCOc1ccc(C(NC(=O)c2ccco2)c2ccc(OC)c(OC)c2)cc1 (configuration not stated) | – | inconclusive: 29.1 µM [falling, single point]
58 | CCOc1cc(N2CCOCC2)c(OCC)cc1NC(=O)COC(=O)c1ccccc1C | inconclusive: -7.38% | –
59 | O=C(CCCN1C(=O)/C(=C/c2ccccc2)SC1=S)NCCCn1ccnc1 | – | inconclusive: 11.2 µM [falling, partial curve]
60 | O=C(O)c1cc(-c2ccc(/C=N/NC(=S)Nc3ccccc3)o2)ccc1Cl | – | inconclusive: 35.5 µM [falling, single point]
61 | COc1cccc(NC(=O)CN2CCSc3ccccc32)c1 | – | inconclusive: 11.2 µM [falling, partial curve]
62 | C=C1C(=O)[C@@]23[C@H](O)C[C@@H]4C(C)(C)CC[C@H](O)[C@@]4(C)[C@@H]2CC[C@@H]1[C@H]3O | inconclusive: 16.4% | –
63 | O=C(Nc1ccccc1Br)C1CCCN1S(=O)(=O)c1cccc2nsnc12 (configuration not stated) | inconclusive: -11.5% | –

Row | Structure (SMILES) | activity change, negative = inhibition | Potency
64 | CCO[C@@H]1OC(C(=O)Nc2ccccc2)=C[C@H](c2ccccc2)[C@H]1CCCO | inconclusive: 12.5% | –
65 | Cc1cc(C)n(C(=O)CNc2ccc(C)c(C)c2)n1 | – | inconclusive: 18.4 µM [falling, single point]
66 | COc1cc(/C=N/NC(=O)C2CCN(CC(O)COCc3ccccc3)CC2)ccc1O (configuration not stated) | inactive: 1.09% | –
67 | O=C(Cn1cc(/C=N/NC(=O)c2cccc3ccccc23)c2ccccc21)Nc1ccc(F)cc1 | – | inconclusive: 7.08 µM [falling, partial curve, poor fit]
68 | COc1ccc2[nH]c(=O)c(CN(CCc3ccccc3)C(C)=O)cc2c1 | inactive: -6.37% | –
69 | COc1ccc2nc(N3CCC(C)CC3)c(C#N)cc2c1 | – | inconclusive: 6.51 µM [rising, full curve, poor fit]
70 | COc1ccc(-c2cc(C(=O)OCC(=O)c3cccc([N+](=O)[O-])c3)c3cc(C)ccc3n2)cc1 | inactive: -1.51% | –
71 | COc1ccc(OC)c(-c2c3cc(O)c(=O)cc-3oc3cc(O)c(O)cc23)c1 | inconclusive: 17% | –
72 | Cc1ccc(-c2nc(CS(=O)(=O)CC(=O)NC3CCCCCC3)c(C)o2)cc1 | inactive: -6.18% | –
73 | Cc1ccc(NC(=O)c2ccc(N3CCOCC3)c([N+](=O)[O-])c2)cc1S(=O)(=O)N1CCOCC1 | inconclusive: -51.9% | –
74 | Cc1nc(Sc2nnnn2-c2ccccc2)c(C#N)c(C)c1C | inactive: 4.97% | –
75 | O=S(=O)(NCCc1csc(-c2cccnc2)n1)c1cccs1 | inconclusive: 1.94% | –
76 | O=C1/C(=C/c2cccnc2)SC(=S)N1c1ccc(F)cc1 | inconclusive: 2.97% | –
77 | CN(C)CCOC(=O)CC12CC3CC(C1)CC(CC(=O)OCCN(C)C)(C3)C2 | inconclusive: 7.73% | –
78 | Cc1ccc(S(=O)(=O)NC2=C(N3CCN(Cc4ccccc4)CC3)C(=O)c3ccccc3C2=O)cc1 | inconclusive: 18.4% | –
79 | Cc1cc(=O)oc2ccc(OCC(=O)N3CCC(C)CC3)cc12 | inconclusive: 11% | –
80 | Cn1nnc2c[n+](CC(=O)c3ccc4ccccc4c3)cc(Br)c21 | inconclusive: 11.1% | –
81 | O=C(NCc1ccccc1)C(=O)NCC(c1ccco1)N1CCOCC1 (configuration not stated) | inactive: -1.1% | –
82 | Clc1cccc(-c2ccc3ncnc(NCc4ccc5c(c4)OCO5)c3c2)c1 | – | inconclusive: 16.4 µM [falling, partial curve, poor fit]
